# Laboratory results as given in the supplement of paper PMC8728848.
# The list shows a part of the results.
# Key:
# Test in all cases: glycan array binding signal (z-score within array); higher = stronger binding
# Details in all cases: glycan notation: IUPAC condensed, linker removed
# [1] = target: Fuc(a1-2)[Gal(a1-3)]Gal(b1-4)GlcNAc(b1-2)Man(a1-3)[Fuc(a1-2)[Gal(a1-3)]Gal(b1-4)GlcNAc(b1-2)Man(a1-6)]Man(b1-4)GlcNAc(b1-4)[Fuc(a1-6)]GlcNAc
# Outline: (§1)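 Glycan array data came from 3228 arrays in the Consortium for Functional Glycomics database, and only arrays with an available protein sequence were kept. Glycan names were put into IUPAC-condensed notation, and columns mapping to the same glycan were averaged. The binding signal is a within-array Z-score, averaged across arrays of one protein sequence run at different concentrations or buffers and across linkers. A negative Z-score can be read as non-binding.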
# [2] = target: Fuc(a1-2)[Gal(a1-3)]Gal(b1-4)GlcNAc(b1-3)GalNAc
# Outline: as §1
# [3] = target: Fuc(a1-2)[Gal(a1-3)]Gal(b1-4)GlcNAc(b1-3)[Fuc(a1-2)[Gal(a1-3)]Gal(b1-4)GlcNAc(b1-6)]GalNAc
# Outline: as §1
# [4] = target: Fuc(a1-2)[Gal(a1-3)]Gal(b1-4)GlcNAc(b1-6)GalNAc
# Outline: as §1
# [5] = target: Fuc(a1-2)[Gal(a1-3)]Gal(b1-4)[Fuc(a1-3)]Glc
# Outline: as §1
# [6] = target: Fuc(a1-2)[Gal(a1-3)]Gal(b1-4)[Fuc(a1-3)]GlcNAc
# Outline: as §1
# [7] = target: Fuc(a1-2)[Gal(a1-3)]Gal(b1-4)[Fuc(a1-3)]GlcNAc(b1-3)GalNAc
# Outline: as §1
# [8] = target: Fuc(a1-2)[Gal(a1-4)]Gal(b1-4)GlcNAc
# Outline: as §1
# [9] = target: Fuc(a1-2)[GalNAc(a1-3)]Gal
# Outline: as §1
# [10] = target: Fuc(a1-2)[GalNAc(a1-3)]Gal(b1-3)GalNAc(a1-3)[Fuc(a1-2)]Gal(b1-4)GlcNAc
# Outline: as §1
# [11] = target: Fuc(a1-2)[GalNAc(a1-3)]Gal(b1-3)GalNAc(b1-3)Gal(a1-4)Gal(b1-4)Glc
# Outline: as §1
# [12] = target: Fuc(a1-2)[GalNAc(a1-3)]Gal(b1-3)GlcNAc
# Outline: as §1
# [13] = target: Fuc(a1-2)[GalNAc(a1-3)]Gal(b1-3)GlcNAc(b1-2)Man(a1-3)[Fuc(a1-2)[GalNAc(a1-3)]Gal(b1-3)GlcNAc(b1-2)Man(a1-6)]Man(b1-4)GlcNAc(b1-4)GlcNAc
# Outline: as §1
# [14] = target: Fuc(a1-2)[GalNAc(a1-3)]Gal(b1-3)GlcNAc(b1-2)Man(a1-3)[Fuc(a1-2)[GalNAc(a1-3)]Gal(b1-3)GlcNAc(b1-2)Man(a1-6)]Man(b1-4)GlcNAc(b1-4)[Fuc(a1-6)]GlcNAc
# Outline: as §1
# [15] = target: Fuc(a1-2)[GalNAc(a1-3)]Gal(b1-3)GlcNAc(b1-3)GalNAc
# Outline: as §1
# [16] = target: Fuc(a1-2)[GalNAc(a1-3)]Gal(b1-3)GlcNAc(b1-6)GalNAc
# Outline: as §1
# [17] = target: Fuc(a1-2)[GalNAc(a1-3)]Gal(b1-4)Glc
# Outline: as §1
# [18] = target: Fuc(a1-2)[GalNAc(a1-3)]Gal(b1-4)GlcNAc
# Outline: as §1
# [19] = target: Fuc(a1-2)[GalNAc(a1-3)]Gal(b1-4)GlcNAc(b1-2)Man
# Outline: as §1
# [20] = target: Fuc(a1-2)[GalNAc(a1-3)]Gal(b1-4)GlcNAc(b1-2)Man(a1-3)[Fuc(a1-2)[GalNAc(a1-3)]Gal(b1-4)GlcNAc(b1-2)Man(a1-6)]Man(b1-4)GlcNAc(b1-4)GlcNAc
# Outline: as §1
# [21] = target: Fuc(a1-2)[GalNAc(a1-3)]Gal(b1-4)GlcNAc(b1-2)Man(a1-3)[Fuc(a1-2)[GalNAc(a1-3)]Gal(b1-4)GlcNAc(b1-2)Man(a1-6)]Man(b1-4)GlcNAc(b1-4)[Fuc(a1-6)]GlcNAc
# Outline: as §1
# [22] = target: Fuc(a1-2)[GalNAc(a1-3)]Gal(b1-4)GlcNAc(b1-3)Gal(b1-4)GlcNAc
# Outline: as §1
# [23] = target: Fuc(a1-2)[GalNAc(a1-3)]Gal(b1-4)GlcNAc(b1-3)Gal(b1-4)GlcNAc(b1-3)Gal(b1-4)GlcNAc
# Outline: as §1
# [24] = target: Fuc(a1-2)[GalNAc(a1-3)]Gal(b1-4)GlcNAc(b1-3)GalNAc
# Outline: as §1
# [25] = target: Fuc(a1-2)[GalNAc(a1-3)]Gal(b1-4)GlcNAc(b1-3)[Fuc(a1-2)[GalNAc(a1-3)]Gal(b1-4)GlcNAc(b1-6)]GalNAc
# Outline: as §1
# [26] = target: Fuc(a1-2)[GalNAc(a1-3)]Gal(b1-4)GlcNAc(b1-6)GalNAc
# Outline: as §1
# [27] = target: Fuc(a1-2)[GalNAc(a1-3)]Gal(b1-4)[Fuc(a1-3)]GlcNAc
# Outline: as §1
# [28] = target: Fuc(a1-2)[GalNAc(a1-3)]Gal(b1-4)[Fuc(a1-3)]GlcNAc(b1-3)GalNAc
# Outline: as §1
# [29] = target: Fuc(a1-2)[GalNAc(a1-4)]Gal(b1-4)GlcNAc
# Outline: as §1
# [30] = target: Fuc(a1-2)[GalNAc(b1-3)]Gal
# Outline: as §1
# Fuc(a1-3)GlcNAc = target: Fuc(a1-3)GlcNAc
# Outline: as §1
# [31] = target: Fuc(a1-3)[Gal(b1-4)]Glc6S
# Outline: as §1
# [32] = target: Fuc(a1-3)[Gal(b1-4)]GlcNAc
# Outline: as §1
# [33] = target: Fuc(a1-3)[Gal(b1-4)]GlcNAc(b1-2)Man
# Outline: as §1
# [34] = target: Fuc(a1-3)[Gal(b1-4)]GlcNAc(b1-2)Man(a1-3)[Fuc(a1-3)[Gal(b1-4)]GlcNAc(b1-2)Man(a1-6)]Man(b1-4)GlcNAc(b1-4)GlcNAc
# Outline: as §1
# [35] = target: Fuc(a1-3)[Gal(b1-4)]GlcNAc(b1-2)Man(a1-3)[Fuc(a1-3)[Gal(b1-4)]GlcNAc(b1-2)Man(a1-6)]Man(b1-4)GlcNAc(b1-4)[Fuc(a1-6)]GlcNAc
# Outline: as §1
# [36] = target: Fuc(a1-3)[Gal(b1-4)]GlcNAc(b1-3)Gal(b1-3)[Fuc(a1-4)]GlcNAc
# Outline: as §1
binder,measurement,setting,value
Wzz (Escherichia coli) (protein) MRTWKFPSVRVMMRVENNNVSGQNHDPEQIDLIDLLVQLWRGKMTIIISVIVAIVLAIGYLAVAKEKWTSTAIITQPDVGQIAGYNNAMNVIYGQAAPKVSDLQETLIGRFSSAFSALAETLDNQEEPEKLTIEPSVKNQQLPLTVSYVGQTAEGAQMKLAQYIQQVDDKVNQELEKDLKDNIALGRKNLQDSLRTQEVVAQEQKDLRIRQIQEALQYANQAQVTKPQIQQTGEDITQDTLFLLGSEALESMIKHEATRPLVFSSNYYQTRQNLLDIDNLDVDKLDIHAYLYVMKPTLPIRRDSPKKAITLILAVLLGGMVGAGIVLGRNALRNYNAK,glycan array binding signal (z-score),[1],-0.233
same,glycan array binding signal (z-score),[2],0.22
same,glycan array binding signal (z-score),[3],0.857
same,glycan array binding signal (z-score),[4],1.01
same,glycan array binding signal (z-score),[5],-0.914
same,glycan array binding signal (z-score),[6],-0.013
same,glycan array binding signal (z-score),[7],1.59
same,glycan array binding signal (z-score),[8],-0.157
same,glycan array binding signal (z-score),[9],-0.416
same,glycan array binding signal (z-score),[10],1.11
same,glycan array binding signal (z-score),[11],-0.325
same,glycan array binding signal (z-score),[12],0.153
same,glycan array binding signal (z-score),[13],-0.965
same,glycan array binding signal (z-score),[14],-0.478
same,glycan array binding signal (z-score),[15],0.208
same,glycan array binding signal (z-score),[16],-1.24
same,glycan array binding signal (z-score),[17],-0.187
same,glycan array binding signal (z-score),[18],-0.731
same,glycan array binding signal (z-score),[19],-0.478
same,glycan array binding signal (z-score),[20],1.14
same,glycan array binding signal (z-score),[21],-0.158
same,glycan array binding signal (z-score),[22],-0.454
same,glycan array binding signal (z-score),[23],-0.168
same,glycan array binding signal (z-score),[24],0.134
same,glycan array binding signal (z-score),[25],0.421
same,glycan array binding signal (z-score),[26],-0.833
same,glycan array binding signal (z-score),[27],-0.666
same,glycan array binding signal (z-score),[28],0.633
same,glycan array binding signal (z-score),[29],0.333
same,glycan array binding signal (z-score),[30],0.765
same,glycan array binding signal (z-score),Fuc(a1-3)GlcNAc,-0.669
same,glycan array binding signal (z-score),[31],1.46
same,glycan array binding signal (z-score),[32],-0.033
same,glycan array binding signal (z-score),[33],-0.431
same,glycan array binding signal (z-score),[34],-0.298
same,glycan array binding signal (z-score),[35],0.922
same,glycan array binding signal (z-score),[36],-0.329

# 2 records picked at random from the list so far, as already listed:
binder,measurement,setting,value
Wzz (Escherichia coli) (protein) MRTWKFPSVRVMMRVENNNVSGQNHDPEQIDLIDLLVQLWRGKMTIIISVIVAIVLAIGYLAVAKEKWTSTAIITQPDVGQIAGYNNAMNVIYGQAAPKVSDLQETLIGRFSSAFSALAETLDNQEEPEKLTIEPSVKNQQLPLTVSYVGQTAEGAQMKLAQYIQQVDDKVNQELEKDLKDNIALGRKNLQDSLRTQEVVAQEQKDLRIRQIQEALQYANQAQVTKPQIQQTGEDITQDTLFLLGSEALESMIKHEATRPLVFSSNYYQTRQNLLDIDNLDVDKLDIHAYLYVMKPTLPIRRDSPKKAITLILAVLLGGMVGAGIVLGRNALRNYNAK,glycan array binding signal (z-score),[29],0.333
same,glycan array binding signal (z-score),[19],-0.478
